This note sets out measurements from doi:10.1101/700294.

Amino acid sequences for entries named in this document (tags omitted).
UniProt O14746: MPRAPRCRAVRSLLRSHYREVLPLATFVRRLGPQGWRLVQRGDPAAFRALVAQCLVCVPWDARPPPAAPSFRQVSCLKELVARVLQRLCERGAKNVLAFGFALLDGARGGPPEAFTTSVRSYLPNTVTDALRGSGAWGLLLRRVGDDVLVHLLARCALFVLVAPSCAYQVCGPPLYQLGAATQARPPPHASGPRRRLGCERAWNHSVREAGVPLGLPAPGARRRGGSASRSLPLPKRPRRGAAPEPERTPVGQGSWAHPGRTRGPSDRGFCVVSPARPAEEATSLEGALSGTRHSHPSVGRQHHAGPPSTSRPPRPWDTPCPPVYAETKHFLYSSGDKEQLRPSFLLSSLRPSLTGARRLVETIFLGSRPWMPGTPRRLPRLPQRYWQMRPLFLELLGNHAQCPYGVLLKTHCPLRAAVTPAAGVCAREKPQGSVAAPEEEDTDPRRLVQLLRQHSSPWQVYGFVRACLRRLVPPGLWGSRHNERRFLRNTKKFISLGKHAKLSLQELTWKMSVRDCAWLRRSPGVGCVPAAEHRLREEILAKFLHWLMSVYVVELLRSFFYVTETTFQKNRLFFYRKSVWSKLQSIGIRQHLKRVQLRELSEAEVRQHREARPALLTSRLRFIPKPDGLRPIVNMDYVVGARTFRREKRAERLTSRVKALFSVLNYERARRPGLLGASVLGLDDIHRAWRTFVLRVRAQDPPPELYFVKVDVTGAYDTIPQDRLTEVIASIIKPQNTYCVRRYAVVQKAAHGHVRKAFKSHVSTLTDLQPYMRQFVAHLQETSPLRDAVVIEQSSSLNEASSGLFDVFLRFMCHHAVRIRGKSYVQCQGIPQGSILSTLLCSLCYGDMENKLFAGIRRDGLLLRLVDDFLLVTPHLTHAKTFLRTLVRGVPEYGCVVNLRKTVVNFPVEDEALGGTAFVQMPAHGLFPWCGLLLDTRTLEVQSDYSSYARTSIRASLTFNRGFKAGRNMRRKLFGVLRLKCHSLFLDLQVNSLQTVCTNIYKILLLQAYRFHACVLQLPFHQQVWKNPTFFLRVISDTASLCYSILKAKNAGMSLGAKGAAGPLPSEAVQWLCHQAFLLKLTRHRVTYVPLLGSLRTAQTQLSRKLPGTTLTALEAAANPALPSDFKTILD
UniProt Q9BUR4: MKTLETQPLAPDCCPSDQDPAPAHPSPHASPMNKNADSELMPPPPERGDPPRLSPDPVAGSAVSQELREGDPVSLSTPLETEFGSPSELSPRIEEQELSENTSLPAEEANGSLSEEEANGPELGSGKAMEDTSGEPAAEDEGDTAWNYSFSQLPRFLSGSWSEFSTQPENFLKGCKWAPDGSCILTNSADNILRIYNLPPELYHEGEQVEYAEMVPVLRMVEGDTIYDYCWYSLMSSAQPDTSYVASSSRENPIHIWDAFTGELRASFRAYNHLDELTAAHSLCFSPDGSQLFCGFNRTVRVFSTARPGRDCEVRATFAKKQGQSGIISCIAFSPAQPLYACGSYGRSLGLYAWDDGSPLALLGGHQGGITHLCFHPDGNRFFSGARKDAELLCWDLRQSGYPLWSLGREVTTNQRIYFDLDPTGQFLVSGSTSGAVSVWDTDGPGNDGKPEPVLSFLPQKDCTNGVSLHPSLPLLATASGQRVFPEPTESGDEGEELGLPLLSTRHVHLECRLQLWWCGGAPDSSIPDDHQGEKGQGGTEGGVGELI

No constants are given. Whether binding was seen depends on the method and setting. Binding seen in cells or lysates may run through a third protein. Some entries that bind do so weakly or less than the wild type.

For experiment [1], the target named is 3xFLAG-TERT (telomerase reverse transcriptase) (human) (UniProt O14746). As to the kind of experiment: co-IP.
The target in experiment [2] is 3xFLAG-HaloTag-TERT modified with biotin (human) (UniProt O14746). Put plainly: co-IP.

On to TCAB1 (from UniProt Q9BUR4 1-548), for which the binding result in experiment [1] and in experiment [2] was “binds” throughout.

B1: dyskerin (protein, UniProt O60832 1-514)
chain: MADAEVIILPKKHKKKKERKSLPEEDVAEIQHAEEFLIKPESKVAKLDTSQWPLLLKNFDKLNVRTTHYTPLACGSNPLKREIGDYIRTGFINLDKPSNPSSHEVVAWIRRILRVEKTGHSGTLDPKVTGCLIVCIERATRLVKSQQSAGKEYVGIVRLHNAIEGGTQLSRALETLTGALFQRPPLIAAVKRQLRVRTIYESKMIEYDPERRLGIFWVSCEAGTYIRTLCVHLGLLLGVGGQMQELRRVRSGVMSEKDHMVTMHDVLDAQWLYDNHKDESYLRRVVYPLEKLLTSHKRLVMKDSAVNAICYGAKIMLPGVLRYEDGIEVNQEIVVITTKGEAICMAIALMTTAVISTCDHGIVAKIKRVIMERDTYPRKWGLGPKASQKKLMIKQGLLDKHGKPTDSTPATWKQEYVDYSESAKKEVVAEVVKAPQVVAEAAKTAKRKRESESESDETPPAAPQLIKKEKKKSKKDKKAKAGLESGAEPGDGDSDTTKKKKKKKKAKEVELVSE
For B1, the binding entry in experiment [1] and in experiment [2] was “binds” each time.
